Laboratory results as given in PubChem BioAssay (EPA / NIEHS).
Where “and” joins values, the source holds several entries; their conditions need not be identical. Identical values can stand only once. Inconclusive means that the source gave no clear call. Such entries were picked first, then a sample of the others. Where the call is inconclusive, the potency comes from a doubtful curve fit. A structure can be active in one record and inactive in another. Calls of active or inactive are those of the source. Rule for the calls: active = hit-call score of the fitted dose curve at least 0.9, where 1 is the maximum; inconclusive = response in the unintended direction; inactive = score below 0.9.

Protein sequences, listed by entry. Tags and fused reporters are not part of them. Lines headed by an entry give the natural chain unless they say otherwise; changes in a name come on top.
UniProt P19793: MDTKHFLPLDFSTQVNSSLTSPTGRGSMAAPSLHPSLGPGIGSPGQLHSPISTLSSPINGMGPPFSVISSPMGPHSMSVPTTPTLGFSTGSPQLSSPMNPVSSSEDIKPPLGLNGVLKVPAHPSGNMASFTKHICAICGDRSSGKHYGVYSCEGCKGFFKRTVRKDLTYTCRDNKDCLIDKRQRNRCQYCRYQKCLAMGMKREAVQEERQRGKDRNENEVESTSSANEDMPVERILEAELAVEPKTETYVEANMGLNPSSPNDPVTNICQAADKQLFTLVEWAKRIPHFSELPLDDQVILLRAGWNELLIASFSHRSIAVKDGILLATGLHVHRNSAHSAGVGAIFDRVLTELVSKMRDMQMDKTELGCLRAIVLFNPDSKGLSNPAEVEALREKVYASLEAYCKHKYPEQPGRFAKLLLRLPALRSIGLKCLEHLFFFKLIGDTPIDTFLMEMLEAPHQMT
UniProt P04637, whole entry, looked up: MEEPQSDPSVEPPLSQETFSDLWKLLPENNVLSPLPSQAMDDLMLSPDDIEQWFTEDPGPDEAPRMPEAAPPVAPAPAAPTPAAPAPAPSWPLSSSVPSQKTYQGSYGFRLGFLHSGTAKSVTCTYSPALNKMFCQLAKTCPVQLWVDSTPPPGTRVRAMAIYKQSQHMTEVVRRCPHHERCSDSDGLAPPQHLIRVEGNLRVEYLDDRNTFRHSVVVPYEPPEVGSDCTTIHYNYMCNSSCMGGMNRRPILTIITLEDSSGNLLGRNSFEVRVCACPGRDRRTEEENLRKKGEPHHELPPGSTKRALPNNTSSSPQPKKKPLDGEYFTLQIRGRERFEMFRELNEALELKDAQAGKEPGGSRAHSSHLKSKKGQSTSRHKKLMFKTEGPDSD

What was measured:
[1] = molecular target: Retinoic acid receptor RXR-alpha (Homo sapiens) (UniProt P19793); test: OT_NURR1_NURR1RXRa_1440: Odyssey Thera (OT) 24-hour HEK293T Protein Complementation Assay for Nurr1/retinoid X receptor (RXR) (AID 2283386)
How it was run: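 Cell-based binding reporter: HEK293T cells, 24 h exposure, fluorescence-detected fragment complementation, DMSO as baseline.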

[2] = TOX21_p53_BLA_p2_viability: Viability Assessment in the Tox21 HCT-116 p53 Agonism Beta-lactamase Assay, Phase 2 (AID 2283591);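 note: compound exposure lasted 16 h at 37 °C; actives lower the ATP signal meaning cytotoxicity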
How it was run: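 HCT116 p53-bla cells, 4000/well, dosed after 5 h plating (217-fold dilution of DMSO stocks) and incubated 16 h at 37C. Viability taken as cellular ATP by CellTiter-Glo luminescence after 30 min RT; signal loss marks cytotoxicity.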

[3] = TOX21_p53_BLA_p3_viability: Viability Assessment in the Tox21 HCT-116 p53 Agonism Beta-lactamase Assay, Phase 3 (AID 2283593);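 note: cells exposed to compound for 16 h before reading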
How it was run: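 HCT116 cells, 4000/well, dosed 5 h after plating by pin transfer (217-fold dilution from DMSO stock) and incubated 16 h at 37C, 5% CO2. Viability read as ATP luminescence with CellTiter-Glo after 30 min at room temperature.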

[4] = TOX21_p53_BLA_p4_viability: Viability Assessment in the Tox21 HCT-116 p53 Agonism Beta-lactamase Assay, Phase 4 (AID 2283597);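 note: hits lower the luminescence signal meaning cytotoxicity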
How it was run: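 Cytotoxicity was inferred from loss of CellTiter-Glo luminescence. HCT116 cells had been dosed with compounds after 5 h plating, incubated 16 h at 37C and 5% CO2, and exposed to the CCF4-AM substrate for 2 h.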

[5] = molecular target: Cellular tumor antigen p53 (Homo sapiens) (UniProt P04637); test: TOX21_p53_BLA_p5_ratio: Tox21 HCT-116 p53 Agonism Beta-lactamase Assay, Ratio, Phase 5 (AID 2283599)
How it was run: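 HCT-116 p53-bla cells (4000/well) plated 5 h, dosed with compound (217-fold DMSO dilution) for 16 h at 37 C; CCF4-AM substrate 2 h at room temperature. Activity is the 460/530 nm emission ratio (405 nm excitation), fitted in gain-of-signal direction versus DMSO.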

[6] = molecular target: Cellular tumor antigen p53 (Homo sapiens) (UniProt P04637); test: TOX21_p53_BLA_p4_ratio: Tox21 HCT-116 p53 Agonism Beta-lactamase Assay, Ratio, Phase 4 (AID 2283601)
How it was run: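 HCT-116 p53 beta-lactamase reporter cells (4000/well) preincubated 5 h, then compound (217-fold dilution of DMSO stock) for 16 h at 37C. CCF4-AM substrate added 2 h at room temperature; 460/530 nm emission ratio fitted upward versus DMSO.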

[7] = TOX21_p53_BLA_p5_viability: Viability Assessment in the Tox21 HCT-116 p53 Agonism Beta-lactamase Assay, Phase 5 (AID 2283600)
How it was run: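 Luciferase-coupled ATP quantitation of cells treated for 16 h (37C, 5% CO2) with test chemicals delivered in DMSO via a 217-fold dilution; 4000 cells/well; reagent incubated 30 min at room temperature before luminescence reading.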

[8] = molecular target: Cellular tumor antigen p53 (Homo sapiens) (UniProt P04637); test: TOX21_p53_BLA_p2_ratio: Tox21 HCT-116 p53 Agonism Beta-lactamase Assay, Ratio, Phase 2 (AID 2283592)
How it was run: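 Ratio endpoint: beta-lactamase cleavage of CCF4-AM, blue (460 nm) over green (530 nm). HCT116 reporter line; 16 h treatment, 37C; substrate 2 h RT.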

[9] = ATG_XTT_Cytotoxicity: Cytotoxicity Assessment in the Attagene TRANS-FACTORIAL HepG2 Assay (AID 2283584);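 for AC50: cells exposed to compound for 24 h before reading; active means loss of viability signal versus DMSO baseline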
How it was run: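 HepG2 human liver cells, transiently transfected with multiple GAL4-UAS reporter units, were dosed and read at 24 h by XTT as cell number. Loss of signal was fitted relative to DMSO negative control baseline.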

[10] = molecular target: Cellular tumor antigen p53 (Homo sapiens) (UniProt P04637); test: TOX21_p53_BLA_p3_ratio: Tox21 HCT-116 p53 Agonism Beta-lactamase Assay, Ratio, Phase 3 (AID 2283596)
How it was run: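 Cells were seeded at 4000/well, rested 5 h at 37C, then dosed with DMSO compound solutions (217-fold dilution) for 16 h. CCF4-AM substrate was loaded for 2 h at room temperature, and the 460/530 nm emission ratio was fitted for gain of signal versus DMSO.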

Measured: AC50

Cc1ccc(N)cc1N
inconclusive: [1] 50 µM | [2] 46.1 µM and 45.1 µM | [3] 45.1 µM | [4] 46.1 µM and 45.1 µM
inactive: [3] | [5]
active: [6] 14.7 µM

O=CCCl
inconclusive: [1] 50 µM | [2] 46.1 µM | [4] 46.1 µM | [7] 88.6 µM

N#Cc1nn(-c2c(Cl)cc(C(F)(F)F)cc2Cl)c(N)c1S(=O)C(F)(F)F (stereo not given)
inactive: [2]
inconclusive: [1] 4.54 µM | [6] 23 µM

CCOc1cccc(C2(N3CCN(c4ccccc4)CC3)CCC(C)CC2)c1 (stereo not given)
inconclusive: [1] 0.211 µM | [2] 46.1 µM | [8] 46.1 µM | [4] 46.1 µM | [5] 46.1 µM | [7] 46.1 µM | [6] 37.8 µM

O=C1C=CC(=O)c2ccccc21
active: [9] 49.2 µM

C[C@@H](Oc1ccc(Cl)cc1Cl)C(=O)O
inactive: [9]

[Cl][Sn]([c]1ccccc1)([c]1ccccc1)[c]1ccccc1
active: [9] 1.73 µM and 986 nM

CCOP(=S)(OCC)SCSC(C)(C)C
inactive: [1]
inconclusive: [3] 46.1 µM and 9.2 µM | [4] 46.1 µM and 11.7 µM | [5] 46.1 µM and 46.4 µM | [7] 46.1 µM and 44.9 nM | [6] 27.4 µM

N#CCCCCC#N
inconclusive: [1] 50 µM | [2] 0.574 µM | [3] 46.1 µM and 46.9 µM | [7] 46.1 µM

COC(=O)c1ccccc1CS(=O)(=O)NC(=O)Nc1nc(OC)cc(OC)n1
inconclusive: [9] 100 µM | [10] 81.7 µM | [4] 46.1 µM | [5] 46.1 µM
inactive: [3]

O=P(O)(O)CN(CP(=O)(O)O)CP(=O)(O)O
inconclusive: [4] 11.8 µM | [5] 11.8 µM | [7] 11.8 µM
inactive: [9] | [6]

O=S(=O)(Oc1ccc(Cl)cc1)c1ccc(Cl)cc1
inconclusive: [9] 100 µM

CCCCC(CC)C(=O)Cl (stereo not given)
inactive: [2] | [10] | [7] | [6]
inconclusive: [9] 100 µM | [3] 46.1 µM | [4] 46.1 µM and 46.7 µM | [5] 46.7 µM

Oc1ccc(C(c2ccc(O)cc2)(C(F)(F)F)C(F)(F)F)cc1
inactive: [7]
active: [9] 60.9 µM and 100 µM | [2] 65.1 µM | [3] 82.1 µM | [10] 54.2 µM | [4] 63.7 µM and 71.3 µM | [5] 72.8 µM | [7] 72.3 µM

CCCCOC(=O)COC(=O)c1ccccc1C(=O)OCCCC
inactive: [4] | [7]
inconclusive: [9] 100 µM | [2] 46.1 µM and 45.9 µM | [8] 85.1 µM | [3] 46.1 µM and 45.9 µM | [4] 45.9 µM | [5] 45.9 µM | [7] 81.2 µM

O=C(Cc1ccccc1)OCCc1ccccc1
inconclusive: [9] 100 µM | [3] 9.14 µM | [10] 46.1 µM | [6] 46.1 µM
inactive: [4]

Cc1ccc(N=C=O)cc1N=C=O
inconclusive: [9] 0.0823 µM | [2] 48.4 nM and 46 µM | [8] 46 µM | [3] 46.1 µM | [10] 46.1 µM | [4] 46 µM | [7] 46.1 µM | [6] 46 µM

Cc1cccc(N=Nc2ccc(N(C)C)cc2)c1
inconclusive: [9] 100 µM | [10] 46.1 µM | [5] 76.5 µM | [7] 46.1 µM and 136 nM
